## Screening data

The results are deposited in PubChem (AID1159506; NCATS, 2015).

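Luminescence from an EWS-FLI1 target-promoter (NR0B1) reporter, set against a CMV-promoter reporter, two days after silencing single genes in TC32 Ewing sarcoma cells. Each siRNA was applied at 20 nM. A z-score of the log NR0B1-over-CMV signal, less the median of siRNAs with the same seed; more negative means a stronger specific loss of the NR0B1 reporter.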

This is part of the screen; most of the strongest results are not listed here. Sequences are the guide (antisense) strand, without overhang.

siRNA | target gene | seed-corrected z-score
UUCACGUCGUUCUGCAUCC | SLC25A10 | -0.1732
UUAGUAACAUGUAGGUCCC | AGXT2 | 0.7643
AGUGCAUCCAGAACAUCGC | YWHAEP7 | -0.06594
UUUGGAGCUUGCCCAUUCC | C21orf59 | 0.2264
UCGGUUUUCUGCAAGGUGG | ITPR3 | 0.2871
UACUAGACUCCAGCACAGU | LOC646014 | -0.144
UUUUCUAGCAAACGGAUGC | JAM2 | 0.06382
UUCAGUUCCCGCGCCAUCU | CNFN | 0.1293
UGAUGCAAAAACAAGAUAU | PHLDA2 | 0.8739
UCACUGUCACUUUUCCCUG | PPP1R14C | -1.572
UUCUUUGCAAGGUAUUAGG | MPP6 | -0.4242
UCUCUGUCUCUCGGAAGCC | ALKBH7 | -0.1131
AACUUUACGAGUCAGUGGA | PROK2 | -0.5377
UAAUGGGAACUCUUGGUCC | RAB19 | -0.09923
UCUCCGUUGACUAGAUUGC | EEA1 | 0.7611
UGAGGUAACUUGUCAGAGG | LEFTY1 | -0.1057
UAGGAUUUUCAUAAUGAUC | ISCU | 0.2406
AUAAUCUCAUCAGUCUUUC | NME9 | 0.9882
UGCCCUAUAAGAUGUGACC | ZNF449 | -0.5503
UAUGCAUUCAGAUAAAAAC | BCL2L10 | 0.01499
UCUGAUAUCAUCGAACUGA | NEK10 | 0.7946
UGAUUGAUCACUCUACAAG | HSFX2 | -0.2234
UGAGCGACUUCAGCAAGGC | CDIPT | 0.006327
UCCUCAAAGACAUCUAUGC | HGD | 0.3019
UCCUUCUCCAGUGAGAUAC | LAMC3 | 0.2631
UGCCUUUAGCUAUCAAUUC | TRIM36 | -0.06093
UGCAGGAGCAAGUCUAGUU | C6orf226 | -0.1314
UUAAGUUCGAUGGAGAACA | EIF3LP3 | -0.3063
AGAAUUUUCGCUCAAGUUG | RSU1 | 0.3991
UGAUGUUGGUGGACAGUGC | SLC35E2B | 0.7346
UCUCACUGUAGAACUCUCG | MRPL28 | 0.217
UUCGGAAAUUAAAACCUCC | LAMA4 | -0.6798
UAAGAUAUAAUUCUGCAGG | TMX4 | 0.575
UUAUAGGUAAGAUUAAACC | OVCH2 | -0.319
UUCAUUCUCGUCAAGGUAC | BMP2 | 0.4585
UCAAUUUCUCGUUUAGUGU | BRK1 | 0.1929
AUAUGGAUUGGAUGUCGCG | IL3 | 1.664
UUCAUUCAAGUCCUCAAUG | ATP5H | -0.5651
UUACACUAAACAAUCCUAC | CACNA1D | -0.06371
UACGUGUAAGCGAUAGGUG | SUOX | -0.7104
UACUCUUCAAACCUUCACU | APH1B | 0.1119
UACUUGAGGGAGUAGUUGG | CRLF1 | -0.3545
UUUUUGCUCCAUCAUAUCC | PRKCI | -0.5284
AAUUUGGGCAUUGUGACUG | OR1E2 | 0.8931
UUUUCGUCCAAGGCAUCGG | CT45A5 | 0.1626
UUAGUGAUCUCAGGUAGUC | RAD52 | 0.9001
UUCGAGAAAAGUCAUACUG | KIAA0100 | -0.314
UAUUGUUCCAGUAUUCUCG | CAPN2 | 0.347
UACGGGAAGGUUGACUACC | UBQLN1 | -0.2292
UUAAGUUUUACCUCCAAUG | TMEM261 | 0.6049
UCAUGUAUCGCAAAGUUCC | EIF2AK2 | 0.3085
UCUGGAAUAAUCAAGAUCU | NR4A3 | 0.125
UAUGCAGGAAGUCAAGGGC | MKNK1 | 0.1448
UAUGGUGAAGGAGAGGUAG | PSENEN | 0.07334
AAACUGGAACUCGUAGGCC | TMEM63B | -0.6929
UUAAAGUCCUGAGCAAUUU | H3F3A | 2.282
UGCUGAACAACUCACCACC | MAPKAPK3 | -1.439
UUCGGCGCAACAGCCUUCA | EGR4 | -0.05311
UUCUGAAACACUUCUUCUG | BCR | 0.09511
AAUCCUACAACUUCGACGC | ATAD2 | -0.3181
UUAACCUUCUCGGCGAUGC | TXNL4A | -0.2721
AUAAUCUACAUAUCCGACC | TDRD1 | -0.6671
UAAUGAGACUGGAUGAUCC | INTS9 | -0.05892
GCUGUGUCCAUGAUUAUGG | C1RL-AS1 | 0.2286
UAUAGUCCUCGGUUUGGUC | BMP15 | -0.3551
UAUGUGUCCCUGAAAUCCA | ADAT3 | 0.08746
AUCUGGACCAAGAACUCCG | VPS4A | 0.8406

For reference, 5 entries once more:

siRNA,target gene,seed-corrected z-score
UUCACGUCGUUCUGCAUCC,SLC25A10,-0.1732
UGAUGCAAAAACAAGAUAU,PHLDA2,0.8739
UCUGGAAUAAUCAAGAUCU,NR4A3,0.125
AUAUGGAUUGGAUGUCGCG,IL3,1.664
UUAAGUUCGAUGGAGAACA,EIF3LP3,-0.3063